# Primary screen of a compound library

Amino acid sequences for entries named in this document (tags omitted). Residues count along the entry.
UniProt I6X8D2, whole entry: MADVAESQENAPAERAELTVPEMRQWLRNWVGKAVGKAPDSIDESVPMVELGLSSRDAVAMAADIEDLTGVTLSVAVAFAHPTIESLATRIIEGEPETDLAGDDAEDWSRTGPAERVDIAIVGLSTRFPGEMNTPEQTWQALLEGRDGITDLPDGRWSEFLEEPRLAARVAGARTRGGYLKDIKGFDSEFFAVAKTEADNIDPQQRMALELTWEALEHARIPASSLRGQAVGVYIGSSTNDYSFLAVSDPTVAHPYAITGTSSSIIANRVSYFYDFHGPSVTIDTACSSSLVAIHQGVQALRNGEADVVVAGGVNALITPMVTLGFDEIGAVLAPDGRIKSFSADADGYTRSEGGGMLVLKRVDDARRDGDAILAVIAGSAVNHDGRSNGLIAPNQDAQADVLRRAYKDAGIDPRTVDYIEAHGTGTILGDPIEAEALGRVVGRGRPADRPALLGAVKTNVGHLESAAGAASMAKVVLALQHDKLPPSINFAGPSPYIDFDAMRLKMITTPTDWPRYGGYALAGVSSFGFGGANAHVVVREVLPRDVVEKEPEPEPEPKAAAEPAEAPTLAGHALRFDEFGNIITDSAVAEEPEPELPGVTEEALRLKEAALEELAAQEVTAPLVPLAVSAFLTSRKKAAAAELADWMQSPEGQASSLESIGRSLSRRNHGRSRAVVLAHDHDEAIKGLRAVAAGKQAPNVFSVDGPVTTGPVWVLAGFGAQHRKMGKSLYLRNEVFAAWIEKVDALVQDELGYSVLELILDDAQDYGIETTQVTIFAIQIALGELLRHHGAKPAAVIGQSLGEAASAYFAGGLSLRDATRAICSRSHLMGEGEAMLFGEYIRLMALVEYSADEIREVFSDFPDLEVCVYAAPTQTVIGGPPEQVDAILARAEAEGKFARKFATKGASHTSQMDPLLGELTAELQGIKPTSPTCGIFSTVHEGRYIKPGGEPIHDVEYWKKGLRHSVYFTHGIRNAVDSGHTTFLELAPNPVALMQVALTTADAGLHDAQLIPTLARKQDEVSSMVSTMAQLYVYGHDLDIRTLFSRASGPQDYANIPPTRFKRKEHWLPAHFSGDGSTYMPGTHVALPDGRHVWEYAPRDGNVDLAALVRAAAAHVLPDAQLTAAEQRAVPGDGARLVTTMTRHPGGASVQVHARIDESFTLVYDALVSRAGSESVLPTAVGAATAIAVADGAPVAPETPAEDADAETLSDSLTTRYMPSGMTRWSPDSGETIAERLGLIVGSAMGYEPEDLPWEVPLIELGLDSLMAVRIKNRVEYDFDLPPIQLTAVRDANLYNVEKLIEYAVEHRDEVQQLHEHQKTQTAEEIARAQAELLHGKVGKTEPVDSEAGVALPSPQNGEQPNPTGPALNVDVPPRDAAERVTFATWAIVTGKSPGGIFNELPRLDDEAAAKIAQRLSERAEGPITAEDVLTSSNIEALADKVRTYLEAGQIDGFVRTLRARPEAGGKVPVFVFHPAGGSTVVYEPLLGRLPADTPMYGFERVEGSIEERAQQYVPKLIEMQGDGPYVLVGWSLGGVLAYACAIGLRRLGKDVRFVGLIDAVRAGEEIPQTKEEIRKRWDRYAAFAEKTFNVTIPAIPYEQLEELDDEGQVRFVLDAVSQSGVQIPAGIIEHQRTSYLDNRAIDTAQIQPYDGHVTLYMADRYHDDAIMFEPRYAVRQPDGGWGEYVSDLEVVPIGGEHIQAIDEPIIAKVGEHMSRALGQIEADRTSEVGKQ
UniProt Q8IDJ8, 1-583: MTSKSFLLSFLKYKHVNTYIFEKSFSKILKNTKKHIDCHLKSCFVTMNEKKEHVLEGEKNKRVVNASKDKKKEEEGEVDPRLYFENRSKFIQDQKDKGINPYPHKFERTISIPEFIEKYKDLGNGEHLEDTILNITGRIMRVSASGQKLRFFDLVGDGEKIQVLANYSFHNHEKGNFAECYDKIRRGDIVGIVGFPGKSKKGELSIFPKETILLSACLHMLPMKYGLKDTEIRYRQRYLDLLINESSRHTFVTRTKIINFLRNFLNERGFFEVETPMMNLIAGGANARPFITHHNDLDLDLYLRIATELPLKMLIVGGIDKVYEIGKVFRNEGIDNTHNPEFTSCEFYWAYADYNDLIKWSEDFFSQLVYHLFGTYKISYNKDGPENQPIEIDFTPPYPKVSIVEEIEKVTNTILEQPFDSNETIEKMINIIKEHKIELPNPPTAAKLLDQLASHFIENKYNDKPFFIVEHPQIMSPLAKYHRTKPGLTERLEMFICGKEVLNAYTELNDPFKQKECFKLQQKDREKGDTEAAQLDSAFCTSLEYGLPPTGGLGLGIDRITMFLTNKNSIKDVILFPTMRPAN
UniProt A4I591, 1-473: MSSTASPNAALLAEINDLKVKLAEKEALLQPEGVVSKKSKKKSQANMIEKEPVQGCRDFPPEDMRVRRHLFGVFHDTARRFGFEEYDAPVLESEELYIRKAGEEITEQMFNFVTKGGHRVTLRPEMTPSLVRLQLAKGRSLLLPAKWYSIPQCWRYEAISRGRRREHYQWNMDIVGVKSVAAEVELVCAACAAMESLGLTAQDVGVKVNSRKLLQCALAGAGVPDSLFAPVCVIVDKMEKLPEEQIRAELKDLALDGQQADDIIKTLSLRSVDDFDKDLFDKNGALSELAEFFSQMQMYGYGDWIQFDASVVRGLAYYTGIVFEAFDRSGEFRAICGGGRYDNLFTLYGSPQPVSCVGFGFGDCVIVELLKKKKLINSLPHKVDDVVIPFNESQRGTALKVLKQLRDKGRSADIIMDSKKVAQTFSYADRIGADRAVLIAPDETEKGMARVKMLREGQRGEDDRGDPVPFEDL
UniProt Q4DA54, 1-478: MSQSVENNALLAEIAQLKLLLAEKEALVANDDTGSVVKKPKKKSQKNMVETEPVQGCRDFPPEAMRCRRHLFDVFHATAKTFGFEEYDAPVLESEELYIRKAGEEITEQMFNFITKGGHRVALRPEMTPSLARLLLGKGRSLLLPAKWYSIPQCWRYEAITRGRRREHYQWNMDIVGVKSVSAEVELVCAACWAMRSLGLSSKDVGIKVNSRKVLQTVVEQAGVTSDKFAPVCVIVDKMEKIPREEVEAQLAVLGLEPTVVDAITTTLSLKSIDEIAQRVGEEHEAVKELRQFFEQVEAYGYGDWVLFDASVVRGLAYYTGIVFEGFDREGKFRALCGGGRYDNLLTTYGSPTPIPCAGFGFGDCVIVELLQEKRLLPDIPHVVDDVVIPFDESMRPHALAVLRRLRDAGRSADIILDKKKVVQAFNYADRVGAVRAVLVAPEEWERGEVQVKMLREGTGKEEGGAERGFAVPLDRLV

The values are deposited in ChEMBL (CHEMBL3988442, “University of Dundee, Small-Polar-MMV Screening Library” (2021)).

A: 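Enzyme assay of the thioesterase domain of polyketide synthase 13; the read-out is not stated. Target: Polyketide synthase Pks13, Mycobacterium tuberculosis (UniProt I6X8D2). Concentration: 30 µM. Higher reads as stronger inhibition (inferred from which compounds were picked for retests). About 67,000 compounds were tested under these conditions; 0.46% (about 300) showed 50% or more at least once.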
B: 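Enzyme assay of the cytosolic lysyl-tRNA synthetase in 384-well plates, read by luminescence. Target: Lysine-tRNA ligase, Plasmodium falciparum 3D7 (UniProt Q8IDJ8). Concentration: 30 µM. Higher reads as stronger inhibition, judged from the few compounds that gave an IC50. Size under these conditions: about 69,000 compounds, about 49 of them at 50% or above in at least one test.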
C: 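Histidine-tRNA ligase, Leishmania infantum (UniProt A4I591). Enzyme assay of histidyl-tRNA synthetase; the read-out is not stated. Compounds at 30 µM. The record gives no direction; compounds that gave an IC50 in retests scored well above the rest, so higher reads as stronger inhibition. The assay is labelled LdHisRS but filed under L. infantum. Size under these conditions: about 69,000 compounds, about 410 of them at 50% or above in at least one test.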
D: 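Enzyme assay of histidyl-tRNA synthetase; the read-out is not stated. Target: Histidine-tRNA ligase, Trypanosoma cruzi CL Brener (UniProt Q4DA54). Compounds at 30 µM. The record gives no direction; compounds that gave an IC50 in retests scored well above the rest, so higher reads as stronger inhibition. Of about 69,000 compounds tested this way, about 31 (0.045%) reached 50% or more in at least one test.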

Results are given as percent effect. The record does not define 0% and 100%; most values in the screen are far below 50% and negative numbers occur (in some assays of this library far below -100). Compounds were drawn at random from those tested, without regard to their results. A dash means the value is not listed here; it may have been measured.

compound,A,B,C,D
C1CCC(NCCN2CCOCC2)C1,-0.3547,-2.401,11.11,12.26
Cc1nc(C2CCCN(C(=O)c3csc(C)n3)C2)no1 (stereo not given),-20.72,5.122,28.77,7.882
O=C(NC1CCN(CC2CC2)C1)N1CCC(OC2CCCCC2)CC1 (stereo not given),-0.9309,2.22,23.6,10.88
CCOc1cccc(C2CC(=O)NCc3nc(N)sc32)c1 (stereo not given),-20.75,3.165,16.44,8.743
O=C(CN1C(=O)CCC1=O)N1Cc2cncnc2C1,-26.19,2.863,8.696,3.093
CN1CCCC(N2CCN(c3nc4ccccn4c3C#N)CC2)C1 (stereo not given),15.12,-4.01,-3.419,3.784
COC(=O)Cn1cccc(S(=O)(=O)N2CCC(C)CC2)c1=O,50.45,1.761,9.709,-4.918
Cc1ccc(S(=O)(=O)NC(=O)C2(c3ccccc3)CCC2)c(C)c1,-8.539,3.977,12.24,1
Fc1cccc(-n2nc(C3CC3)nc2CCn2cnnn2)c1,-35.2,8.303,18.33,-19.48
COCCNc1nc(N2CCCC2)nc2nccnc12,-14.66,-1.445,22.92,6.25
O=C(O)CCC(=O)Nc1nn(Cc2ccc(F)cc2)cc1Cl,-14.16,-0.5804,4.425,-2.212
c1ccc(COC[C@H]2CCC[C@@]23CNCCO3)nc1,-34.36,0.8033,8.182,8.466
CC(=O)NCCCC(=O)NC1(c2ccc(Cl)c(Cl)c2)CC1,-11.4,6.295,8.621,5.759
CC(C)(C)Oc1ccc(NCC(=O)NCc2ccco2)cc1,-4.388,0.3439,18.07,11.44
Cc1cc(CN(C)C(=O)NC2CCS(=O)(=O)C2)no1 (stereo not given),-11.66,6.667,18.67,-2.642
O=C(NCCSC1CCCC1)c1c(F)cccc1F,-35.07,0.8216,3.125,-2.128
CC(c1nc(C2CC2)no1)N1CCN(Cc2cccc(F)c2F)CC1 (stereo not given),26.5,3.582,9.434,8.333
CN(Cc1ccsc1)C(=O)c1cccc(S(=O)(=O)NCC2CCCO2)c1 (stereo not given),-6.095,-0.9682,17.31,5.714
COCCN1C[C@@H]2CN(C(=O)CC3CC3)C[C@@H]2C1=O,-24.44,4.199,19.42,14.56
Cc1noc(C2CCCN(C(=O)c3cc(-c4ccccc4)on3)C2)n1 (stereo not given),6.35,-1.614,11.9,7.921
COCCN1CCC2(CC1)CC(CC(N)=O)c1ccc(F)cc12 (stereo not given),6.302,1.246,-2,2.299
O=C(NCc1cn2c(n1)SCC2)c1cn(CCN2CCCCC2)nn1,1.799,-6.087,0.885,-2.4
COc1cc(CNCC(O)c2cccc(F)c2)cc2c1OCO2 (stereo not given),3.956,0.09227,18.18,6.433
CN(Cc1nc2ccccc2o1)C1CCCN(c2cccnn2)C1 (stereo not given),-1.388,0.02812,8.929,9.798
CCCC1(CO)CCCN(C(=O)CNC(C)=O)C1 (stereo not given),-1.51,2.296,13.25,6.468
CCC[C@@H]1CN(Cc2ccccc2C#N)C[C@H]1NC(C)=O,-0.311,-3.039,24.39,8.173
CC(=O)N[C@@H]1CN(Cc2cccs2)C[C@H]1c1ccc(C)o1,-18.58,2.573,1.429,3.191
CC(Nc1nc2c(cnn2C)c(=O)[nH]1)c1ccccn1 (stereo not given),9.302,-2.93,-5.333,3.804
CC(O)CNC(=O)c1nc(Cc2c(Cl)cccc2Cl)no1 (stereo not given),6.333,-2.176,1.099,-1.031
COCC1(NC(=O)Nc2nc(C)ns2)CCCC1,-19.85,3.596,12.77,7.514
c1nc(CN2CCC3(CC2)COCCN3CC2CC2)c[nH]1,-7.708,2.143,7.692,3.659
CN(C)C(=O)c1ccc(C2CCCN2C(=O)CCC2=NNC(=O)CC2)s1 (stereo not given),-9.235,3.4,6.122,-2.051
CCOc1ccc2ccccc2c1CNCC1CCNCC1,-28.14,4.561,4.167,0
Fc1ccc(CN2C[C@@H]3OCCN(CCN4CCCC4)[C@@H]3C2)cc1,-23.95,1.38,27.73,0.9804
O[C@@H]1C[C@@H](c2nc(-c3ccccc3)no2)N(CC2CCCCC2)C1,-6.825,7.718,19.44,8.911
CCN1CCC(CC(=O)NCC(O)c2cccc(OC)c2)CC1 (stereo not given),-27.5,3.584,9.375,0
O=C(CCNS(=O)(=O)c1ccc(F)cc1)NCc1ccoc1,-,8.303,13.39,10
Cc1nn(C)c2c(=O)n(CC(=O)Nc3cc(Cl)cc(Cl)c3)nnc12,-18.84,6.472,13.59,4.918
O=C1C(NCc2nnc3n2CCCC3)CCN1c1ccccc1 (stereo not given),-8.059,8.721,-4.255,-0.7634
Cc1nc(N)cc(C2CN(C(=O)c3cscn3)CCO2)n1 (stereo not given),-10.99,2.761,12.77,2.326
CN(C)C(=O)N1CCc2onc(C(=O)Nc3cccnc3)c2C1,-23.89,2.57,11.65,4.854
Cc1ccccc1CN1CCCN(C(=O)c2ccn(C)c(=O)c2)CC1,-9.409,1.865,7.965,4.867
Cc1nc(C2CCCNC2)cc(N2CCc3nc(N)sc3C2)n1 (stereo not given),-17.7,4.508,20,27.27
O=C(Nc1cccnn1)NC(CCCO)c1ccccc1 (stereo not given),-5.438,4.956,14.63,5.288
NCCn1nc(C2CCN(C(=O)Cc3ccccc3)C2)c2nccnc21 (stereo not given),-8.728,1.727,30,23.97
CC(NCc1cccc2c1OCCO2)c1cc2c(cc1Br)OCCO2 (stereo not given),-10.95,6.838,5.051,7.097
CCn1ncc2c1C(COCC1CC1)N(Cc1cnn(C)c1)CC2 (stereo not given),-13.27,3.21,-0.8547,10.16
CCOc1ccc(Cl)c(C(=O)N2CCN(CCO)CC2)n1,-3.842,2.029,-63.01,3.817
CCn1cc(NC(=O)Nc2ccc3c(c2)OCCO3)cn1,-18.23,1.42,20.51,7.123
CC[C@@H](c1ccccc1)n1c(C2CC2)n[nH]c1=O,-2.412,-1.121,16.48,4.95
Cc1nn(C)c(C)c1C1CCCN1C(=O)c1ccc(NC2CC2)nc1 (stereo not given),-4.61,1.046,12.31,0.3831
CS(=O)(=O)c1cccc(C(=O)N2CCCC(n3cccn3)C2)c1 (stereo not given),-22.56,1.867,17.59,-3.226
O=C(CCCNc1ncccn1)N1CCCC(n2ccnc2)C1 (stereo not given),-22.34,2.765,4.348,2.254
CS(=O)(=O)NC[C@H]1OC[C@@H](NC2CCC(F)(F)CC2)[C@@H]1O,-22.13,3.354,4.054,0
COCCNC(=O)c1cnc(N(C)C)nc1C,-8.146,6.641,20.65,2.97
CN1CCN(S(=O)(=O)c2cccc(F)c2)Cc2cccnc21,-17.39,3.16,13.86,-13.57
CCc1noc(C2CCCCN2C(=O)c2sccc2C)n1 (stereo not given),-7.546,-7.575,15.52,0
CCc1cc(CN(C)Cc2nc(-c3ccc(OC)cc3F)oc2C)on1,-9.383,-0.5116,1.042,3.352
O=C(Nc1ccccc1)C1CN(Cc2nccs2)CC12CCOCC2 (stereo not given),-17.48,5.567,12.33,2.97
O=C(CC1CN(Cc2ccccc2)CCO1)NC1CCCC1 (stereo not given),-31.63,-3.962,17.31,2.674
Cc1cc(C[C@@H]2CCC[C@H]2NCc2ccccc2C(F)(F)F)on1,-8.364,1.493,5.556,0.5405
CC(C)c1noc(CN(Cc2ccccc2)C2CC2)n1,-10.17,1.891,-27.06,0.4484
O=C1CCC2(CCNCC2)CN1CCCNc1cccnc1,5.513,1.534,24.66,13.11

For reference, 6 entries once more:

Result for COc1cc(CNCC(O)c2cccc(F)c2)cc2c1OCO2 (stereo not given) was A: 3.956%; B: 0.09227%; C: 18.18%; D: 6.433%.
Result for CC(O)CNC(=O)c1nc(Cc2c(Cl)cccc2Cl)no1 (stereo not given) was A: 6.333%; B: -2.176%; C: 1.099%; D: -1.031%.
Result for c1nc(CN2CCC3(CC2)COCCN3CC2CC2)c[nH]1 was A: -7.708%; B: 2.143%; C: 7.692%; D: 3.659%.
Result for Cc1nc(C2CCCNC2)cc(N2CCc3nc(N)sc3C2)n1 (stereo not given) was A: -17.7%; B: 4.508%; C: 20%; D: 27.27%.
Result for COC(=O)Cn1cccc(S(=O)(=O)N2CCC(C)CC2)c1=O was A: 50.45%; B: 1.761%; C: 9.709%; D: -4.918%.
Result for CN1CCN(S(=O)(=O)c2cccc(F)c2)Cc2cccnc21 was A: -17.39%; B: 3.16%; C: 13.86%; D: -13.57%.